Experiment: general procedure: solution-phase peptide synthesis; BOP, hydroxybenzotriazole

Row | Substance | step yield (late stage modification step) [% yield] | step yield (coupling step) [% yield]
1 | (4S,7S,10S,13S,15R)-10-benzyl-15-hydroxy-7,13-diisobutyl-15-methyl-1-morpholino-2,5,8,11,14-pentaoxo-4-phenethyl-3,6,9,12-tetraazahexadecan-16-yl methanesulfonate | 90 | –
2 | (S)—N—((S)-1-(((2R,4S)-1,2-dihydroxy-2,6-dimethyl-3-oxoheptan-4-yl)amino)-1-oxo-3-phenylpropan-2-yl)-4-methyl-2-((S)-2-(2-morpholinoacetamido)-4-phenylbutanamido)pentanamide | – | 40
